Measurements reported in PubChem BioAssay AID504786 (Drosophila RNAi Screening Center, 2011).
The screen tested about 21,000 reagents; below is a random part of those that have a named target and a result. 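Primary screen; positive scores mean lost reporter signal, so the sign may be inverted from the usual convention.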 The numbers tell different reagents against one gene apart. Not all columns of the deposit are shown.

Screen: 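Fly genes required for HIF-dependent transcription when hypoxia is mimicked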 (primary screen)
System: Drosophila S2 cells with a stable HIF luciferase reporter
Knock-down reagent: long dsRNA against Drosophila genes, about 0.2 µg dsRNA per well of a 384-well plate
Duration: three days of knock-down, then 20 h of DFO before reading
Conditions: desferrioxamine (DFO) at 100 µM, an iron chelator that mimics hypoxia, for 20 h
Measured: 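HIF reporter luminescence in cells given 100 µM DFO for 20 h, using the mouse ldh-a hypoxia-response element, scored as per-plate z-scores; higher means greater loss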
Scale: z-score: higher = stronger loss of HIF reporter signal

mRpS35 (mitochondrial ribosomal protein S35) showed z-score, replicate 1 = 0.7.
After knock-down of CG17648, the record shows z-score, replicate 1 = 0.1.
Knock-down of CG9662 resulted in: z-score, replicate 1 = -0.3.
With knock-down of CG7488 the results were z-score, replicate 1 = 0.1.
Silencing of CG15034 gave: z-score, replicate 1 = -0.2.
Depletion of CG6959 gave: z-score, replicate 1 = -0.4.
For Kif3C (Kinesin family member 3C) #1 the deposit lists z-score, replicate 1 = -0.3.
Against Kif3C (Kinesin family member 3C) #2, the entry reads z-score, replicate 1 = -0.3.
With knock-down of Vha16-2 (Vacuolar H[+] ATPase 16kD subunit 2) the results were z-score, replicate 1 = -0.2.
CG14191 showed z-score, replicate 1 = -0.2.
Against Cpr73D (Cuticular protein 73D), the entry reads z-score, replicate 1 = -0.3.
For CG31077 the deposit lists z-score, replicate 1 = -0.4.
For CG9855 the deposit lists z-score, replicate 1 = -0.3.
With knock-down of CG8892, the screen gave z-score, replicate 1 = -0.3.
Silencing of Cyp313b1 (Cytochrome P450 313b1) resulted in: z-score, replicate 1 = -0.3.
After knock-down of fax (failed axon connections) the results were z-score, replicate 1 = -0.4.
After knock-down of tld (tolloid), the screen gave z-score, replicate 1 = -0.3.
Knock-down of zetaCOP (Coat Protein (coatomer) zeta) resulted in: z-score, replicate 1 = -0.1.
Knock-down of Smox (Smad on X) resulted in: z-score, replicate 1 = -0.3.
Knock-down of Tep5Psi (Thioester-containing protein 5 pseudogene) #1 resulted in: z-score, replicate 1 = -0.3.
Knock-down of Tep5Psi (Thioester-containing protein 5 pseudogene) #2 resulted in: z-score, replicate 1 = -0.2.
With knock-down of Cyp6a19 (Cytochrome P450 6a19) the results were z-score, replicate 1 = -0.2.
Depletion of CG5567 resulted in: z-score, replicate 1 = -0.4.
Diap2 (Death-associated inhibitor of apoptosis 2) showed z-score, replicate 1 = -0.2.
With knock-down of Apoltp (Apolipoprotein lipid transfer particle), the record shows z-score, replicate 1 = -0.2.
Against CG9498 the deposit lists z-score, replicate 1 = -0.1.
After knock-down of Irk2 (Inwardly rectifying potassium channel 2) the results were z-score, replicate 1 = -0.3.
